Experimental data reported in US11149020B2, “MAP kinase modulators and uses thereof” (The Trustees of Columbia University in the City of New York, priority 2013, dated 2021).

Assays:
[1] = system: APP/PS1 mice; assay: Control tests (open field, sensory threshold, visible platform) in APP/PS1 mice; format: in vivo, mouse; conditions: 2.5 mg/kg, daily, oral gavage
[2] = system: APP/PS1 mice; assay: Fear conditioning (contextual and cued) in APP/PS1 mice; conditions: 2.5 mg/kg, daily, oral gavage

SMILES | open field and sensory threshold in APP/PS1 mice [1] | visible platform performance in APP/PS1 mice [1] | cued fear memory in APP/PS1 mice [2]
c1ccc2c(-c3nnc(C4CC4)cc3-c3ccncc3)cccc2c1 [7 (MW-077), 6-cyclopropyl-3-(naphthalen-1-yl)-4-(pyridin-4-yl)pyridazine] | do not affect anxiety status of the animal and its ability to feel the noxious stimulus | do not affect performance with visible platform tasks | do not affect cued fear memory
c1ccc2cc(-c3nnc(C4CC4)cc3-c3ccncc3)ccc2c1 [9 (MW-125), 6-Cyclopropyl-4-(pyridin-4-yl)-3-(naphthalen-2-yl)pyridazine] | do not affect anxiety status of the animal and its ability to feel the noxious stimulus | do not affect performance with visible platform tasks | do not affect cued fear memory
CN1CCN(c2cc(-c3ccncc3)c(-c3ccc4ccccc4c3)nn2)CC1 [27 (MW-150), 6-(4-methylpiperazine-1-yl)-3-(naphthalen-2-yl)-4-(pyridin-4-yl)pyridazine] | do not affect anxiety status of the animal and its ability to feel the noxious stimulus | do not affect performance with visible platform tasks | do not affect cued fear memory

Some entries repeat one wording, which the source may state once for all of them.
